These are yes or no findings as the source states them, for the method shown. Some binding calls cover weakened binding; strength is not graded here. Tags and fused reporters may be left off the sequences shown. Blank lines part the entries; values can stand above or below the binder they belong to.
Legend:
BMP6 [1] = target: BMP6 (UniProt P22004); assay: Biacore SPR; kinetics indeterminate (transient)
GDF6 = target: T1, GDF6 (UniProt Q6KF10); assay: Biacore SPR; kinetics indeterminate (transient)
T1 sequence (looked up): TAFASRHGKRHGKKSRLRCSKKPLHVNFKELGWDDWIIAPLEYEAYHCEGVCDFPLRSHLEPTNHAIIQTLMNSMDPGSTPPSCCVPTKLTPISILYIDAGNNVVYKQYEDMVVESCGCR

By UniProt entry, the sequences of proteins in these tests, tags left out. Residues count along the entry.
UniProt P22004, residues 382-513: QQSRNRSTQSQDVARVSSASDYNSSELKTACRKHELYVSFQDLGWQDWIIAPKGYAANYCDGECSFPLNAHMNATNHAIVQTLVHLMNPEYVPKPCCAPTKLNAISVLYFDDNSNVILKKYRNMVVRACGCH
UniProt O95393, residues 317-424: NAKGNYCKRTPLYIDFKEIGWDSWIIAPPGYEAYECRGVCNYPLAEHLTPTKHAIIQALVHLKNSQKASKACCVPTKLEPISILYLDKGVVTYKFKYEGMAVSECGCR
UniProt P22003, residues 317-454: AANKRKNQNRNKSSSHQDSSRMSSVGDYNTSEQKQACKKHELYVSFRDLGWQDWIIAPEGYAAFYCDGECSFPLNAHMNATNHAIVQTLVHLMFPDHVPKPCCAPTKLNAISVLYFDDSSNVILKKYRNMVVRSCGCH
UniProt Q9UK05, residues 320-429: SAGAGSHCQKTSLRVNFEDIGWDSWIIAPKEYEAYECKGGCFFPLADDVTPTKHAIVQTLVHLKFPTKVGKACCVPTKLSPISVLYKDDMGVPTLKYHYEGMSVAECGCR

BMP10 = BMP10 (UniProt O95393); assay: Biacore SPR
BMP5 = BMP5 (UniProt P22003); assay: Biacore SPR
BMP6 [2] = target: BMP6 (UniProt P22004); assay: Biacore SPR
BMP9 = BMP9 (UniProt Q9UK05); assay: Biacore SPR
GDF11 = target: T2, GDF11 (UniProt O95390); assay: Biacore SPR
T2 sequence (looked up): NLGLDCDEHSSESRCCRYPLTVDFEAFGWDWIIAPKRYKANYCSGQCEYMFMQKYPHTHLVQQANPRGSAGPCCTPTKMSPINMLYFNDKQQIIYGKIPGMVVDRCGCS

GDF3 = target: T3, GDF3 (UniProt Q9NR23); assay: Biacore SPR
T3 sequence (looked up): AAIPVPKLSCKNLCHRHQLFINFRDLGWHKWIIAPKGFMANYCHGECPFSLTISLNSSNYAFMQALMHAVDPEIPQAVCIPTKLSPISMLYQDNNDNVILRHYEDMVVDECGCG

GDF8 = target: T4, GDF8 (UniProt O14793); assay: Biacore SPR
T4 sequence (looked up): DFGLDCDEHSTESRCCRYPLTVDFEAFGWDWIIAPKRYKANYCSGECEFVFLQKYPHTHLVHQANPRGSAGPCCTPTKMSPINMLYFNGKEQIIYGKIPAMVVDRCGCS

activin B = target: T5, activin B (UniProt P09529); assay: Biacore SPR
T5 sequence (looked up): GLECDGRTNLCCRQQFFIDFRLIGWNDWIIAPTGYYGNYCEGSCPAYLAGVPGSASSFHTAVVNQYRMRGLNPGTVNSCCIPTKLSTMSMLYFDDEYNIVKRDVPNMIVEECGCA

GDF5 = target: T6, GDF5 (UniProt P43026); assay: Biacore SPR; kinetics indeterminate (transient)
T6 sequence (looked up): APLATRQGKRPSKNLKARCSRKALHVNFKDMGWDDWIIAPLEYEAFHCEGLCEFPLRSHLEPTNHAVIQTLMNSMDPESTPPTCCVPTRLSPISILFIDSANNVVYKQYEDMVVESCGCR

GDF7 = target: T7, GDF7 (UniProt Q7Z4P5); assay: Biacore SPR; kinetics indeterminate (transient)
T7 sequence (looked up): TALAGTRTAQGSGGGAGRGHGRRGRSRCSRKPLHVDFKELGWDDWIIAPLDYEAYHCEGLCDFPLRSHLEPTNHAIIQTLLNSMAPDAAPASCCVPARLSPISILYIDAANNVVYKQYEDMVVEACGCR

binding (BMP6 [1]): binds
binding (GDF6): binds
B1: BMPRII-Fc homodimer (Fc fusion, UniProt Q13873 27-150, looked up, not shown: a dimerising Fc or GST)
chain: SQNQERLCAFKDPYQQDLGIGESRISHENGTILCSKGSTCYGLWEKSKGDINLVKQGCWSHIGDPQECHYEECVVTTTPPSIQNGTYRFCCCSTDLCNVNFTENFPPPDTTPLSPPHSFNRDET

binding (BMP10): binds
binding (BMP5): binds
binding (BMP6 [2]): binds
binding (BMP9): binds
binding (GDF11): binds
binding (GDF3): binds
binding (GDF8): binds
binding (activin B): binds
binding (GDF5): binds
binding (GDF7): binds
B2: ActRIIB-Fc homodimer (Fc fusion, UniProt Q13705 19-137, looked up, not shown: a dimerising Fc or GST)
chain: SGRGEAETRECIYYNANWELERTNQSGLERCEGEQDKRLHCYASWRNSSGTIELVKKGCWLDDFNCYDRQECVATEENPQVYFCCCEGNFCNERFTHLPEAGGPEVTYEPPPTAPTLLT

Source: patent US20190225669A1
